Drawing on PubChem BioAssay AID2685 (National Center for Advancing Translational Sciences (NCATS), 2010), this text covers cell number change and AC50 for 61 compounds.

This assay in a line: qHTS Assay for Lipid Storage Modulators in Drosophila S3 Cells.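 As to cell number change: cells counted by Cell Tracker Red CMTPX staining in the red channel.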 The conditions noted are these: BODIPY lipid droplet fluorescence, 18-24 h; for cell number change: measured here: cell count max response, cells fed with added oleic acid. Summed up: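 Drosophila S3 cells got compounds at several concentrations plus oleic acid (400 uM solution). Laser-scanning cytometry with 488 nm excitation read lipid droplets at 500-530 nm and cells at 575-640 nm. Percent activity was relative to 20 uM Triacsin C.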

The mark [1] stands for this setting: measured here: lipid fluorescence (Fed channel) AC50, cells fed with added oleic acid.
The mark [2] stands for this setting: measured here: cell number channel AC50, cells fed with added oleic acid.

SMILES strings stand for the structures. The list shows a part of the results. These are further read-outs of the screen, such as a control signal, another cell line or another target. No call is given for them. Compounds called inactive in the main read-out are mostly missing here. Potencies come from curve fits of mixed quality, noted in brackets.

A word on the AC50: it is the midpoint of the concentration-response curve, whichever way the signal moves. Read a high AC50 as weaker potency. Consider `CNC(=S)N1N=C(c2ccc(C)cc2)CC1c1cc(OC)ccc1OC` (stereo not given), for which the cell number change is 11.1%. For the same compound, under setting [1], the AC50 was 29.1 µM [falling, single point]. In the case of `O=C(O)CCN1c2cccc3cccc(c23)S1(=O)=O`, the cell number change is -10.5%. Under setting [1], the AC50 is 35.5 µM [falling, single point].

In the case of `Cc1cccc(NC(=O)COC(=O)c2ccccc2SCC(=O)N2CCCC2)c1`, the cell number change was -4.88%. For the same compound, the AC50 under setting [1] was 10.3 µM [falling, partial curve, poor fit]. In the case of `Cc1nc(CNS(=O)(=O)c2cccs2)cs1`, the cell number change was -70.7%. Further, the AC50 under setting [2] is 25.9 µM [falling, partial curve]. Besides, the AC50 under setting [1] was 10.3 µM [falling, partial curve]. For the compound `COC(=O)NNC1=CC(=O)CC(C)(C)C1`, the AC50 was 0.58 µM [rising, single point] under setting [2] and 0.58 µM [rising, single point] under setting [1]. As to `N#Cc1cccc(-n2nnnc2-c2ccc3c(c2)OCO3)c1`, the AC50 under setting [2] is 0.00517 µM [falling, partial curve, poor fit]. For `CCCC(=O)N1CCN(c2ccc(NC(=O)c3ccco3)cc2)CC1`, the cell number change was 13.7%. The AC50 under setting [1] is 1.64 µM [rising, partial curve]. For `Cc1nc2ncnn2c(C)c1Cc1cccc(C(F)(F)F)c1`, the cell number change came to 44.2%. The AC50 under setting [1] was 6.51 µM [rising, partial curve, poor fit].

On to `Cc1ccc(OC(F)F)c(NC(=O)Nc2ccc3c(c2)OCO3)c1`, for which the cell number change came out at 1.51%. The AC50 under setting [1] was 7.31 µM [rising, partial curve, poor fit]. As for `CC1=C(C(=O)OCC2CCCO2)C(c2ccccc2OC(C)C)C2=C(CC(c3ccco3)CC2=O)N1` (stereo not given), the AC50 under setting [2] is 4.61 µM [rising, partial curve].

`CCN1CCN(C(=S)c2ccc(Cl)cc2)CC1`: the cell number change came to 3.41%. Besides, the AC50 under setting [2] was 4.11 µM [falling, single point]. Regarding `O=C(CNC(=O)c1ccccc1)NCC(=O)OCC(=O)c1ccccc1Cl`, the cell number change is -4.42%. In addition, the AC50 under setting [1] is 29.1 µM [rising, partial curve]. With `COc1ccc(NC(=S)N2CCN(S(=O)(=O)c3ccc(OC)cc3)CC2)cc1`, the cell number change turned out to be 22%. Also, the AC50 under setting [2] was 2.06 µM [rising, partial curve]. Besides, the AC50 under setting [1] was 3.66 µM [rising, full curve, poor fit]. For `CCc1nnc(NC(=O)C2CCCN2C(=O)Nc2ccccc2OC)s1` (stereo not given), the cell number change was -8.06%. Besides, the AC50 under setting [1] was 0.326 µM [falling, full curve, poor fit]. Regarding `Cc1ccc(C2C=NN(c3ccccc3)C2=O)cc1` (stereo not given), the cell number change was 11.8%. In addition, the AC50 under setting [1] is 29.1 µM [rising, single point]. Regarding `O=c1c(F)cn(C2CCCO2)c(=O)n1Cc1ccccc1F` (stereo not given), the cell number change was found to be 11%. Also, under setting [1], the AC50 is 0.184 µM [rising, partial curve].

In the case of `CCOC(=O)/C(C#N)=C/c1cc(C)n(-c2ccc(Br)cc2)c1C`, the cell number change is -36.2%. In addition, the AC50 under setting [2] is 32.6 µM [falling, single point]. Besides, under setting [1], the AC50 was 1.3 µM [falling, partial curve]. With `Cc1ccc(CNC(=O)CN2C(=O)COc3ccc(C)cc32)cc1`, the cell number change was -7.43%. Regarding `Cc1ccc(C)c(NC(=O)c2cc(-c3cc(C)cc(C)c3O)n[nH]2)c1`, the cell number change is -18.6%. Also, the AC50 under setting [1] was 29.1 µM [falling, single point]. Take `Cc1c(C)c2ccc(OCC(=O)Nc3ccccc3C(N)=O)cc2oc1=O`: the cell number change is 21.3%. Besides, the AC50 under setting [2] was 0.0326 µM [rising, full curve, poor fit]. Consider `O=S(=O)(c1ccc2ccccc2c1)N1CCN(C2CCN(Cc3ccccc3)CC2)CC1`, for which, under setting [1], the AC50 was 4.11 µM [falling, partial curve]. Consider `CCCCNCC(O)(c1ccc(Cl)cc1)c1ccc(Cl)cc1`, for which the cell number change was -36.2%. The AC50 under setting [2] is 20.6 µM [falling, single point]. Regarding `CCCN(CCC)c1nc2ccccc2n2c(C)nnc12`, the AC50 reads like this: under setting [2], 2.31 µM [rising, partial curve]; under setting [1], 2.31 µM [rising, partial curve].

Turning to `CCN(CC)S(=O)(=O)c1ccc(Cl)c(C(=O)OC2CC(C)OC2=O)c1` (stereo not given), the cell number change amounted to 22.2%. Further, the AC50 under setting [1] was 5.8 µM [rising, full curve, poor fit]. For the compound `COc1ccc(C)cc1NC(=O)C(NC(=O)c1cc(OC)c(OC)c(OC)c1)C(C)C` (stereo not given), the cell number change is 49.1%. For the compound `Cn1c(=O)[nH]c(Nc2ccccc2)c([N+](=O)[O-])c1=O`, the cell number change worked out at 11.1%. For the same compound, under setting [1], the AC50 is 0.92 µM [falling, full curve, poor fit]. Take `COc1cc(C(=S)N2CCOCC2)ccc1OC(=O)c1cccc(C)c1`: the cell number change was -44.9%. Also, the AC50 under setting [2] is 10.3 µM [falling, partial curve]. Further, under setting [1], the AC50 was 5.8 µM [falling, full curve]. Regarding `O=C(Nc1ccncc1)C1CC1c1ccccc1` (stereo not given), the cell number change was -10.8%. For the same compound, the AC50 under setting [1] is 4.11 µM [rising, single point]. For `Cn1c(CCN2CCOCC2)nc2cc(NS(=O)(=O)c3ccccc3)ccc21`, the cell number change is -21.9%.

Take `CCc1ccc(NC(=O)C(C)OC(=O)C2CCN(c3ccc(C(F)(F)F)cn3)CC2)cc1` (stereo not given): the cell number change was -23.7%. Still for that read-out and setting: next, `COc1ccc(-n2c(C)nc3cc(C(=O)NCc4ccc5c(c4)OCO5)ccc32)cc1`: 7.38%. With `CCCc1cc(C(=O)Nc2cccc([N+](=O)[O-])c2)cs1`, under setting [1], the AC50 was 17.8 µM [falling, single point]. With `COc1cc2c(cc1OC)C1OC(c3ccsc3)(C2)Oc2cc(C)oc(=O)c21` (stereo not given), the cell number change was -27.1%. The AC50 under setting [1] was 0.00473 µM [falling, full curve, poor fit]. `Cc1ccc2c(CN(C)Cc3ccc(Cl)cc3Cl)cc(=O)oc2c1`: the cell number change stood at 5.13%. In the case of `COc1ccc2nc(COC(=O)c3cccc([N+](=O)[O-])c3)c(C(C)=O)[n+]([O-])c2c1`, the cell number change came to 23.7%. Further, the half-maximal activity concentration (AC50) under setting [1] is 0.291 µM [rising, full curve].

In the case of `CCCc1cc(C(=O)N/N=C/c2ccc(C)o2)c2ccccc2n1`, the cell number change is -32.3%. Besides, the AC50 under setting [2] was 0.231 µM [falling, full curve, poor fit]. In addition, the AC50 under setting [1] was 1.64 µM [falling, full curve, poor fit].

For `COc1ccc(-n2c(Cc3cc(=O)[nH]c(=O)[nH]3)nnc2SCC(=O)Nc2ccccc2)cc1`, the cell number change was 2.41%. `COC(=O)c1sc(S(=O)(=O)N2CCN(c3ccccc3)CC2)c(C(=O)OC)c1C`: the AC50 under setting [1] was 0.58 µM [falling, single point]. For `CCCCCCSc1nsc(N)n1`, the cell number change was -29.2%. Besides, the AC50 under setting [1] was 6.51 µM [rising, single point].

On to `COc1ccc(S(=O)(=O)NC2CC3CCC2C3)cc1` (stereo not given), for which the cell number change was 23.7%. The AC50 under setting [1] was 29.1 µM [rising, single point]. On to `N#C/C(=C\c1ccccc1)C(=O)NC(=O)Oc1ccccc1`, for which the AC50 under setting [1] was 2.59 µM [falling, full curve].

Turning to `O=C(COC(=O)c1ccccn1)c1cccc(Br)c1`, the cell number change came to 22.5%. For the same compound, the concentration at half-maximal activity (AC50) under setting [1] was 0.112 µM [rising, full curve, poor fit]. Consider `Cc1cc(=O)oc2c(CN3CC(C)OC(C)C3)c(O)c(Cl)cc12` (stereo not given), for which the cell number change worked out at 59.9%. The AC50 under setting [2] was 1.3 µM [rising, partial curve, poor fit]. In the case of `CN(C)CCCNC(=O)N1c2ccccc2Sc2ccccc21`, the cell number change is 2.38%.

As to `Cc1ccc(Cl)cc1NC(=O)CSC(N)=O`, the cell number change is -35.3%. For the same compound, the AC50 under setting [2] was 32.6 µM [falling, single point]. Moreover, the AC50 under setting [1] is 29.1 µM [falling, single point]. Turning to `CC(CC(=O)NCCc1ccc(S(N)(=O)=O)cc1)c1ccccc1` (stereo not given), the cell number change was found to be 5.22%.

In the case of `COc1ccc(C(=O)OCCCc2cc3ccccc3c(=O)o2)cc1`, the cell number change was -29.8%. In addition, the AC50 under setting [1] was 0.184 µM [falling, full curve, poor fit]. In the case of `CC1CC(C)CN(C(=O)COC(=O)c2ccc3c(c2)OCO3)C1` (stereo not given), the cell number change is 16.4%. The half-maximal activity concentration (AC50) under setting [1] is 2.31 µM [rising, full curve]. Take `CN(C)S(=O)(=O)c1cccc(-n2sc3ccccc3c2=O)c1`: the cell number change is -75.4%. The AC50 under setting [2] was 13 µM [falling, partial curve, poor fit]. Further, under setting [1], the AC50 was 25.9 µM [falling, partial curve, poor fit]. Consider `CC1(C)Cc2c(cnn2-c2ccc(F)cc2)C(NC(=O)CN2CCCC2=O)C1` (stereo not given), for which the cell number change amounted to 5.9%. Moreover, the AC50 under setting [1] is 29.1 µM [falling, single point]. Turning to `CC(C)COc1ccc(C(=O)CCN2CCCCC2)cc1`, the cell number change is -36.1%. Also, under setting [2], the AC50 is 20.6 µM [falling, partial curve]. The AC50 under setting [1] was 0.731 µM [falling, full curve]. As for `COc1cc(NC(=O)c2ccc([N+](=O)[O-])o2)ccc1NC(=O)c1cccs1`, the cell number change was determined as 3.56%. Under setting [2], the AC50 was 0.00517 µM [falling, full curve, poor fit]. Further, under setting [1], the AC50 is 18.4 µM [falling, partial curve]. In the case of `O=C(Nc1nccs1)c1ccc(Cl)c([N+](=O)[O-])c1`, the cell number change is -35.4%. Moreover, the AC50 under setting [1] was 0.58 µM [falling, single point].

`Cc1cc(Nc2cccc(F)c2)nc(N2CCOCC2)n1`: the AC50 under setting [2] is 0.13 µM [rising, full curve, poor fit].

In the case of `COC(=O)c1ccccc1NC(=O)C/C(C)=N/NC(=O)Cc1ccc(Cl)cc1`, the cell number change is 11.5%. In addition, the AC50 under setting [1] was 6.51 µM [falling, single point].

Consider `Cc1cc(C)cc(NC2=CC(=O)CC(c3ccco3)C2)c1` (stereo not given), for which the cell number change was 60%. Moreover, the AC50 under setting [2] is 16.4 µM [rising, partial curve].

With `CCOc1ccc(-c2nnc(SCc3nnc(-c4ccccc4)o3)n2-c2ccccc2F)cc1`, the cell number change was 31%. The AC50 under setting [2] was 29.1 µM [rising, single point]. The AC50 under setting [1] was 13 µM [rising, partial curve, poor fit]. On to `COc1ccccc1NS(=O)(=O)c1cc2c3c(c1)CC(=O)N3CCC2`, for which the cell number change is 29.8%. For the same compound, the AC50 under setting [1] was 29.1 µM [falling, single point]. Consider `CCCCNC(=O)CSc1nccn1Cc1ccccc1`, for which the cell number change is -26.3%. The AC50 under setting [1] is 16.4 µM [falling, single point].

On to `Cc1ccc(/C=C2/Sc3ccc(C(=O)N4CCN(c5ccccn5)CC4)cc3NC2=O)cc1`, for which the cell number change is 9.48%. Also, under setting [1], the AC50 is 18.4 µM [falling, single point].

Consider `CCCn1c(N)c(N(CCOC)C(=O)c2ccc(N3CCCC3=O)cc2)c(=O)[nH]c1=O`, for which the cell number change is -17.7%.
